# Test results as given in the supplement of paper PMC8728848.
# The list shows a part of the results.
# B1: Wzz (Escherichia coli) (protein)
# chain: MRTWKFPSVRVMMRVENNNVSGQNHDPEQIDLIDLLVQLWRGKMTIIISVIVAIVLAIGYLAVAKEKWTSTAIITQPDVGQIAGYNNAMNVIYGQAAPKVSDLQETLIGRFSSAFSALAETLDNQEEPEKLTIEPSVKNQQLPLTVSYVGQTAEGAQMKLAQYIQQVDDKVNQELEKDLKDNIALGRKNLQDSLRTQEVVAQEQKDLRIRQIQEALQYANQAQVTKPQIQQTGEDITQDTLFLLGSEALESMIKHEATRPLVFSSNYYQTRQNLLDIDNLDVDKLDIHAYLYVMKPTLPIRRDSPKKAITLILAVLLGGMVGAGIVLGRNALRNYNAK
# Columns and labels:
# Assay in all cases: glycan array binding signal (z-score within array); higher = stronger binding
# Conditions in all cases: glycan notation: IUPAC condensed, linker removed
# Gal3S6S(b1-4)GlcNAc = target: Gal3S6S(b1-4)GlcNAc
# Procedure, shortened: (§1)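 From the Consortium for Functional Glycomics database, 3228 arrays were curated, keeping only those whose protein sequence was available. Binding is given as a within-array Z-score averaged across arrays sharing a protein sequence and across linkers. Negative Z-scores can be read as non-binding.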
# Gal3S6S(b1-4)GlcNAc6S = target: Gal3S6S(b1-4)GlcNAc6S
# Procedure, shortened: as §1
# Gal4S(b1-4)GlcNAc = target: Gal4S(b1-4)GlcNAc
# Procedure, shortened: as §1
# Gal4S6S(b1-4)GlcNAc = target: Gal4S6S(b1-4)GlcNAc
# Procedure, shortened: as §1
# Gal6P(b1-4)GlcNAc = target: Gal6P(b1-4)GlcNAc
# Procedure, shortened: as §1
# Gal6S(b1-3)GlcNAc = target: Gal6S(b1-3)GlcNAc
# Procedure, shortened: as §1
# Gal6S(b1-3)GlcNAc6S = target: Gal6S(b1-3)GlcNAc6S
# Procedure, shortened: as §1
# Gal6S(b1-4)Glc = target: Gal6S(b1-4)Glc
# Procedure, shortened: as §1
# Gal6S(b1-4)Glc6S = target: Gal6S(b1-4)Glc6S
# Procedure, shortened: as §1
# Gal6S(b1-4)GlcNAc = target: Gal6S(b1-4)GlcNAc
# Procedure, shortened: as §1
# Gal6S(b1-4)GlcNAc6S = target: Gal6S(b1-4)GlcNAc6S
# Procedure, shortened: as §1
# GalNAc(a1-3)Gal = target: GalNAc(a1-3)Gal
# Procedure, shortened: as §1
# GalNAc(a1-3)GalNAc = target: GalNAc(a1-3)GalNAc
# Procedure, shortened: as §1
# [1] = target: GalNAc(a1-3)GalNAc(b1-3)Gal(a1-4)Gal(b1-4)Glc
# Procedure, shortened: as §1
# [2] = target: GalNAc(a1-3)GalNAc(b1-3)Gal(a1-4)Gal(b1-4)GlcNAc
# Procedure, shortened: as §1
# GalNAc(b1-3)Gal = target: GalNAc(b1-3)Gal
# Procedure, shortened: as §1
# [3] = target: GalNAc(b1-3)Gal(a1-4)Gal(b1-4)GlcNAc
# Procedure, shortened: as §1
# [4] = target: GalNAc(b1-3)Gal(a1-4)Gal(b1-4)GlcNAc(b1-3)Gal(b1-4)Glc
# Procedure, shortened: as §1
# [5] = target: GalNAc(b1-3)Gal(a1-6)Gal(b1-4)Glc
# Procedure, shortened: as §1
# GalNAc(b1-3)GalNAc = target: GalNAc(b1-3)GalNAc
# Procedure, shortened: as §1
# GalNAc(b1-3)GlcNAc = target: GalNAc(b1-3)GlcNAc
# Procedure, shortened: as §1
# GalNAc(b1-4)Gal(b1-4)Glc = target: GalNAc(b1-4)Gal(b1-4)Glc
# Procedure, shortened: as §1
# GalNAc(b1-4)GlcNAc = target: GalNAc(b1-4)GlcNAc
# Procedure, shortened: as §1
# [6] = target: GalNAc(b1-4)GlcNAc(b1-2)Man
# Procedure, shortened: as §1
# [7] = target: GalNAc(b1-4)GlcNAc(b1-2)Man(a1-3)[GalNAc(b1-4)GlcNAc(b1-2)Man(a1-6)]Man(b1-4)GlcNAc(b1-4)GlcNAc
# Procedure, shortened: as §1
# [8] = target: GalNAc(b1-4)GlcNAc(b1-3)GalNAc(b1-4)GlcNAc
# Procedure, shortened: as §1
# GalNAc(b1-4)GlcNAc6S = target: GalNAc(b1-4)GlcNAc6S
# Procedure, shortened: as §1
# GalNAc(b1-6)GalNAc = target: GalNAc(b1-6)GalNAc
# Procedure, shortened: as §1
# GalNAc3S(b1-4)GlcNAc = target: GalNAc3S(b1-4)GlcNAc
# Procedure, shortened: as §1
# GalNAc3S(b1-4)GlcNAc3S = target: GalNAc3S(b1-4)GlcNAc3S
# Procedure, shortened: as §1
# [9] = target: GalNAc3S(b1-4)[Fuc(a1-3)]GlcNAc
# Procedure, shortened: as §1
# GalNAc4S6S(b1-4)GlcNAc = target: GalNAc4S6S(b1-4)GlcNAc
# Procedure, shortened: as §1
# GalNAc6S(b1-4)GlcNAc = target: GalNAc6S(b1-4)GlcNAc
# Procedure, shortened: as §1
# Glc(a1-4)Glc = target: Glc(a1-4)Glc
# Procedure, shortened: as §1
# [10] = target: Glc(a1-4)Glc(a1-4)Glc(a1-4)Glc
# Procedure, shortened: as §1
# Glc(a1-6)Glc(a1-6)Glc = target: Glc(a1-6)Glc(a1-6)Glc
# Procedure, shortened: as §1
# [11] = target: Glc(a1-6)Glc(a1-6)Glc(a1-6)Glc
# Procedure, shortened: as §1
# Glc(b1-4)Glc = target: Glc(b1-4)Glc
# Procedure, shortened: as §1
binder,measurement,setting,value
B1,glycan array binding signal (z-score),Gal3S6S(b1-4)GlcNAc,0.861
same,glycan array binding signal (z-score),Gal3S6S(b1-4)GlcNAc6S,16.9
same,glycan array binding signal (z-score),Gal4S(b1-4)GlcNAc,-0.728
same,glycan array binding signal (z-score),Gal4S6S(b1-4)GlcNAc,-0.319
same,glycan array binding signal (z-score),Gal6P(b1-4)GlcNAc,-0.86
same,glycan array binding signal (z-score),Gal6S(b1-3)GlcNAc,0.504
same,glycan array binding signal (z-score),Gal6S(b1-3)GlcNAc6S,-0.659
same,glycan array binding signal (z-score),Gal6S(b1-4)Glc,0.245
same,glycan array binding signal (z-score),Gal6S(b1-4)Glc6S,0.986
same,glycan array binding signal (z-score),Gal6S(b1-4)GlcNAc,0.428
same,glycan array binding signal (z-score),Gal6S(b1-4)GlcNAc6S,4.99
same,glycan array binding signal (z-score),GalNAc(a1-3)Gal,-0.563
same,glycan array binding signal (z-score),GalNAc(a1-3)GalNAc,-0.327
same,glycan array binding signal (z-score),[1],0.491
same,glycan array binding signal (z-score),[2],0.212
same,glycan array binding signal (z-score),GalNAc(b1-3)Gal,-0.018
same,glycan array binding signal (z-score),[3],-0.236
same,glycan array binding signal (z-score),[4],0.023
same,glycan array binding signal (z-score),[5],-1.2
same,glycan array binding signal (z-score),GalNAc(b1-3)GalNAc,-0.158
same,glycan array binding signal (z-score),GalNAc(b1-3)GlcNAc,-0.325
same,glycan array binding signal (z-score),GalNAc(b1-4)Gal(b1-4)Glc,0.919
same,glycan array binding signal (z-score),GalNAc(b1-4)GlcNAc,-0.456
same,glycan array binding signal (z-score),[6],-0.591
same,glycan array binding signal (z-score),[7],-0.567
same,glycan array binding signal (z-score),[8],-0.667
same,glycan array binding signal (z-score),GalNAc(b1-4)GlcNAc6S,-0.772
same,glycan array binding signal (z-score),GalNAc(b1-6)GalNAc,-0.118
same,glycan array binding signal (z-score),GalNAc3S(b1-4)GlcNAc,-0.568
same,glycan array binding signal (z-score),GalNAc3S(b1-4)GlcNAc3S,1.15
same,glycan array binding signal (z-score),[9],0.835
same,glycan array binding signal (z-score),GalNAc4S6S(b1-4)GlcNAc,5.1
same,glycan array binding signal (z-score),GalNAc6S(b1-4)GlcNAc,-0.373
same,glycan array binding signal (z-score),Glc(a1-4)Glc,-0.197
same,glycan array binding signal (z-score),[10],0.175
same,glycan array binding signal (z-score),Glc(a1-6)Glc(a1-6)Glc,-0.682
same,glycan array binding signal (z-score),[11],0.02
same,glycan array binding signal (z-score),Glc(b1-4)Glc,-0.306

# As a working copy, some entries already given.
binder,measurement,setting,value
B1,glycan array binding signal (z-score),Gal4S6S(b1-4)GlcNAc,-0.319
same,glycan array binding signal (z-score),Gal6P(b1-4)GlcNAc,-0.86
same,glycan array binding signal (z-score),Gal6S(b1-3)GlcNAc,0.504
